{
  "source": "patent US5486515A",
  "about": "“2-fluoroalkyl-1,4-benzoxaxines as potassium channel mediators” (Zeneca Limited, priority 1993, dated 1996)",
  "key": {"[1]": {"test_system": "bladder detrusor smooth muscle", "test": "first in vitro test: relaxation of guinea pig bladder detrusor strips contracted with 15 mM KCl", "type": "cell-based, Male albino Hartley guinea pigs", "settings": "calcium channel blockers", "experimental": "Male albino Hartley guinea pigs (450-500 g) are sacrificed by carbon dioxide induced asphyxiation and quickly exsanguinated. The lower abdominal cavity is opened and the urinary bladder isolated. […] The solution is warmed to 37° C. and gassed with 95% O2 and 5% CO2. With vigorous bubbling, the solution should have a pH value close to 7.4.\nThe dome of the washed bladder is cut off and discarded; the remaining bladder is placed on a gauze in a Petri dish containing the buffer solution. A mid-ventral longitudinal cut is made with scissors to open the bladder. The strips cut from the dome and the base edge are discarded. The remaining detrusor mid-section is cut into two horizontal strips with an approximate width of 2.0 mm. These two strips are further bisected at the mid-dorsal section, creating four strip of similar dimensions. Each strip thus contains both dorsal and ventral portions of the bladder.\nThe two ends of each individual strip are tied to a glass support rod and a force-displacement transducer (Grass model FR03), respectively, with 4-0 black braided silk suture. […]\nWhen the tissue relaxes to a steady state after the final washing, 15 mM KCl is again applied. […] The effect of the compound at each dose is expressed as % of the maximum inhibitory response, which is further normalized with respect to the corresponding effect of the compound vehicle control. […]"}, "[2]": {"test_system": "detrusor smooth muscle", "test": "second in vitro test: relaxation of guinea pig detrusor strips contracted with 80 mM KCl", "type": "cell-based", "settings": "80 mM KCl vs 15 mM KCl", "experimental": "This second in vitro test is similar to the one described above with regard to tissue preparation and data acquisition. However, the following exceptions are noted. In this second test, the contraction of the detrusor strips during priming and after the equilibration period is achieved with 80 mM instead of 15 mM KCl (total concentration in the bath)."}},
  "data": [
    {"smiles": "COC(=O)C1=C(C)NC(C)=C(C(=O)OC)C1c1ccccc1[N+](=O)[O-]", "note": "[nifedipine]", "values": [
      {"measurement": "relaxation and reduction of the myogenic activity of guinea pig detrusor strips", "setting": "[1]", "result": "able to relax and reduce the myogenic activity"},
      {"measurement": "potency in the second test relative to the first test", "setting": "[2]", "result": "more potent in the second test"}
    ]}
  ]
}
